PMC5596601
Results are given in words; binding and its absence hold for the method and conditions named. Binding seen in cells or lysates may run through a third protein. Some entries that bind do so weakly or less than the wild type.

Sequences of proteins named here, by UniProt entry; tags and fusion partners are left off. Residues count along the entry.
UniProt O14763, residues 56-440: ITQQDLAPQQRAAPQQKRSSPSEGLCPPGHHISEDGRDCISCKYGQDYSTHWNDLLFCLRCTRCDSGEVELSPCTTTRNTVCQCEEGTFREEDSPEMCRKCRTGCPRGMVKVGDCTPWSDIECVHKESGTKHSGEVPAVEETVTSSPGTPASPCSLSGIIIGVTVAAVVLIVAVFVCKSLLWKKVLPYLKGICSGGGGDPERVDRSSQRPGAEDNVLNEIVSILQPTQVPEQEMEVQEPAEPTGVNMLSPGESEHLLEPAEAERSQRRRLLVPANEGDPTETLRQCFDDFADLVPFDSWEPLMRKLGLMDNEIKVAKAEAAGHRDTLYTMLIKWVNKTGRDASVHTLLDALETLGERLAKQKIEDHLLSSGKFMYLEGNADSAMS
UniProt Q13158: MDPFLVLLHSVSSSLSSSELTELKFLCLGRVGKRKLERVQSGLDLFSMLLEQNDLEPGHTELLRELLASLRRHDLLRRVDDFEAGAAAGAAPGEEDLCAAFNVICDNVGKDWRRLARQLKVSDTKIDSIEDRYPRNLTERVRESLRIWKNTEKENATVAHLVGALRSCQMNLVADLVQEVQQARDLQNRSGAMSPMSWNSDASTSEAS
UniProt O00220, residues 24-468: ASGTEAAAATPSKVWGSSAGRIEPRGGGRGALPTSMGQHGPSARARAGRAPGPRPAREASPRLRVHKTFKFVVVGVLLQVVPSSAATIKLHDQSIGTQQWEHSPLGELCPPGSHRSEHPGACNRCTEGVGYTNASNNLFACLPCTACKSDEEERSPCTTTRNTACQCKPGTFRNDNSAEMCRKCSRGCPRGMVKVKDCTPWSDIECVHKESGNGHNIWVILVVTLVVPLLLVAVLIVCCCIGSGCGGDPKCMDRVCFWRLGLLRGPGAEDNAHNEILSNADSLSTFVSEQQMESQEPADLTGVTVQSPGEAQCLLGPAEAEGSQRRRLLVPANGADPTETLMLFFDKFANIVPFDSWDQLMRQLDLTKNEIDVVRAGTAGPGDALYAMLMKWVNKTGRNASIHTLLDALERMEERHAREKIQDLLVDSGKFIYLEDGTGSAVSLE
UniProt Q14790: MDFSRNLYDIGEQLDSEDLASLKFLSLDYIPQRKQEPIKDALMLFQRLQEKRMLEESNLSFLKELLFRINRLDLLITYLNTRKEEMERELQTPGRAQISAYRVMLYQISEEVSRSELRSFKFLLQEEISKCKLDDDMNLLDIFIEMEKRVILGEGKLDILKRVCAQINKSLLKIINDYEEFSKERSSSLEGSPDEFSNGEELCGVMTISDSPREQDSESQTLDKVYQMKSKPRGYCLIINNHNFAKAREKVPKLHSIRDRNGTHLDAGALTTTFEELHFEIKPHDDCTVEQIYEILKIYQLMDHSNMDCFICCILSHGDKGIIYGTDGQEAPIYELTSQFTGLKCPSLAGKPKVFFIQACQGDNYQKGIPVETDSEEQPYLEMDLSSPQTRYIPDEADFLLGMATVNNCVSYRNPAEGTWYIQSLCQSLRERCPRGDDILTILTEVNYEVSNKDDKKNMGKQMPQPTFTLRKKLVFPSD
UniProt Q13546: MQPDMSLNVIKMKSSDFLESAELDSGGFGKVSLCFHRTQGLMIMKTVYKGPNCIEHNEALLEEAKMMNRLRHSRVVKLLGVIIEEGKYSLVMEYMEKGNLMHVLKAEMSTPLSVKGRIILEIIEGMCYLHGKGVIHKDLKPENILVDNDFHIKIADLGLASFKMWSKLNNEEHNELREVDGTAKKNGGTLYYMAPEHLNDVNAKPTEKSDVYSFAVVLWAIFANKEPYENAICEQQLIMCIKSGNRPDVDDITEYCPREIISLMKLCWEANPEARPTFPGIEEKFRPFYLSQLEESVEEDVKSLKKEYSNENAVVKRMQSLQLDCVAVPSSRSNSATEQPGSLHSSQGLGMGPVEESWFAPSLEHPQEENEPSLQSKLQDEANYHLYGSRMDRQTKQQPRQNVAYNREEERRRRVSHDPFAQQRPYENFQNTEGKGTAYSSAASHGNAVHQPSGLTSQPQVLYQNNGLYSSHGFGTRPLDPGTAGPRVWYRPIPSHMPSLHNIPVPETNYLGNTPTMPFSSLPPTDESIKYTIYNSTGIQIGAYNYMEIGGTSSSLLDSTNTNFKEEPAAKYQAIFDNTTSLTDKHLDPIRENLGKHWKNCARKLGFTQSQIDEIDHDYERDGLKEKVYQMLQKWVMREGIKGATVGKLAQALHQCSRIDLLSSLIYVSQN

How the values were obtained:
[1] = biological target: Death Receptor 5 (human (endogenous in BJELR)) (UniProt O14763); experiment: co-IP; purified plasma membrane fraction of BJELR cells (also control and DcR2 knockout cells), naive or treated with 1 ug/ml TRAIL for 30 min; antibodies to DR5, RIPK1, TRAF2 or FADD; Western blot
[2] = biological target: T1, Decoy Receptor 2 (human (endogenous in BJELR)) (UniProt Q9UBN6); experiment: co-IP; whole-cell lysates (1% Triton X-100, 150 mM NaCl, pH 7.4) of BJELR cells, naive or treated with 1 ug/ml TRAIL for 30 min; antibodies to DR5, DR4, DcR2 or caspase-8 on protein G magnetic beads, overnight at 4 °C; Western blot
T1 sequence: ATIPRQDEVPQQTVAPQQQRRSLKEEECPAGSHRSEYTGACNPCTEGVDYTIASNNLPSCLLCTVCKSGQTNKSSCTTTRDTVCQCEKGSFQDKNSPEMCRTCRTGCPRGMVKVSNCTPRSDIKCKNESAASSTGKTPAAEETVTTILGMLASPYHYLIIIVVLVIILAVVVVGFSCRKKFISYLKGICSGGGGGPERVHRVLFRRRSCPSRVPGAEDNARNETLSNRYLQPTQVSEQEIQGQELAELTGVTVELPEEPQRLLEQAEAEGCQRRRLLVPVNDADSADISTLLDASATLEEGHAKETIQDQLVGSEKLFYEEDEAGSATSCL

[3] = biological target: Death Receptor 5 (human (endogenous in BJELR)) (UniProt O14763); experiment: as above
[4] = biological target: T2, TRAF2 (TNF receptor-associated factor 2) (human (endogenous in BJELR)) (UniProt Q12933); experiment: co-IP; purified plasma membrane fraction of BJELR cells (also control and DcR2 knockout cells), naive or treated with 1 ug/ml TRAIL for 30 min; antibodies to DR5, RIPK1, TRAF2 or FADD; Western blot
T2 sequence: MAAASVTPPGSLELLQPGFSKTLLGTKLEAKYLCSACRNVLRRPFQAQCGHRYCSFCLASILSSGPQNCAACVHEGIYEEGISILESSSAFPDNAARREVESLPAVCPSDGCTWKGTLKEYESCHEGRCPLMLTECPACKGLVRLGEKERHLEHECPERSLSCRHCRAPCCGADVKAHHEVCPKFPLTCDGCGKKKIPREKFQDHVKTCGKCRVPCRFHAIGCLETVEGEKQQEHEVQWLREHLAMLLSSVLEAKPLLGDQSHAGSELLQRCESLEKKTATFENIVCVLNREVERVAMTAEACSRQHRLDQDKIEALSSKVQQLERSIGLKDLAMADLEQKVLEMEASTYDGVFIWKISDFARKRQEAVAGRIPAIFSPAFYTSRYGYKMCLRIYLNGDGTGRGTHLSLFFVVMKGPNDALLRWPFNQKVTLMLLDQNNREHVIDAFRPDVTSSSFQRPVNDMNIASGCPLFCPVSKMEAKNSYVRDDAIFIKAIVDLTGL

Row | Substance | binding [1] | binding [2] | binding [3] | binding [4]
1 | FADD (Fas-associated protein with death domain) (from UniProt Q13158 1-208) | binds | binds | binds | 
2 | Death Receptor 4 (from UniProt O00220 24-468) |  |  |  | binds
3 | caspase-8 (from UniProt Q14790 1-479) (enzyme) |  | binds |  | 
4 | RIPK1 (receptor-interacting serine/threonine-protein kinase 1) (from UniProt Q13546 1-671) | binds |  | binds | 
